From PubChem BioAssay AID328 (DTP/NCI, 2004)
The list does not hold the whole screen: it gathers tests that were run many times, whatever their T/C, doses with no T/C, and many T/C values between a quarter and a half above the control. Further doses and runs are listed elsewhere. T/C is the treated group as % of the vehicle group. Some entries give survivors of the animals treated and no T/C: the source files T/C as zero there, which appears to mark a toxic dose or a test without result, not a measured value. Some doses without a T/C left all or most animals alive at the check, yet need not have been tolerated: the source hardly ever lists a survival T/C far under the control, and the zero likely stands for such cases as well. Counts of survivors are from the toxicity check (mostly the fifth day) where no day follows; animals may have died later. Schedules are NCI's codes, read here as Q, the interval in days (D) or hours (H), X, the number of doses. Some molecules as drawn cover several salts, stereoisomers or complexes of the source; a dose is that of the sample tested. Some entries hold several experiments; their values stand side by side, smallest first. For survival time, the PubChem record calls one and a half times the control and up active, and a quarter to a half above the control has no call in these data; cut-offs in other NCI protocols can differ. Signs of the kind (2×) stand for listed records that agree. Some T/C values carry the count of animals alive at the toxicity check (mostly the fifth day); where none is given, no animal had died by that day. Some schedule codes hold Z or #, which are not explained here.

Tested on: BDF1 mice, P388 leukemia ip, median survival T/C
Assay: NCI In Vivo Anticancer Drug Screen. Data for tumor model P388 Leukemia (intraperitoneal) in B6D2F1 (BDF1) mice
Conditions: T/C endpoint: median survival time, higher T/C = longer survival
Method in brief: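 Read-out is survival of treated animals expressed relative to the vehicle group, as a T/C ratio.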

[1] = dose: 200.0 mg/kg/injection, schedule: Q01DX009 (ip), vehicle: saline
[2] = dose: 25.0 mg/kg/injection, schedule: Q01DX009 (ip), vehicle: saline
[3] = dose: 110.0 mg/kg/injection, schedule: Q04DX003 (ip), vehicle: saline
[4] = dose: 200.0 mg/kg/injection, schedule: Q04DX003 (ip), vehicle: saline with Tween-80
[5] = dose: 100.0 mg/kg/injection, schedule: Q01DX009 (ip), vehicle: Klucel (hydroxypropylcellulose) (HPC)
[6] = dose: 400.0 mg/kg/injection, schedule: Q01DX009 (ip), vehicle: saline with Tween-80
[7] = dose: 400.0 mg/kg/injection, schedule: Q04DX003 (ip), vehicle: saline
[8] = dose: 100.0 mg/kg/injection, schedule: Q01DX009 (ip), vehicle: saline with Tween-80
[9] = dose: 200.0 mg/kg/injection, schedule: Q01DX009 (ip), vehicle: saline with Tween-80

Q: With `O=C(NO)c1ccncc1` as the compound, how does the T/C [1] read?
A: 136 % of control

Q: What about the T/C (dose: 200.0 mg/kg/injection, schedule: Q01DX010 (ip), vehicle: water) of the same compound?
A: 130 % of control

Q: What about the T/C (dose: 300.0 mg/kg/injection, schedule: Q01DX009 (ip), vehicle: saline) of the same compound?
A: 131 % of control

Q: And the T/C (dose: 335.0 mg/kg/injection, schedule: Q01DX010 (ip), vehicle: water)?
A: 136 % of control

Q: And the T/C (dose: 400.0 mg/kg/injection, schedule: Q01DX009 (ip), vehicle: saline)?
A: 140 % of control [5 of 6 alive]

Q: And the T/C (dose: 400.0 mg/kg/injection, schedule: Q01DX010 (ip), vehicle: water)?
A: 136 and 145 % of control

Q: What about the T/C (dose: 400.0 mg/kg/injection, schedule: Q#A X020 (ip), vehicle: water) of the same compound?
A: 136 % of control

Q: And the T/C (dose: 500.0 mg/kg/injection, schedule: Q01DX010 (ip), vehicle: water)?
A: 140 % of control

Q: What about the T/C (dose: 500.0 mg/kg/injection, schedule: Q02DX005 (ip), vehicle: water) of the same compound?
A: 136 % of control

Q: And the T/C (dose: 600.0 mg/kg/injection, schedule: Q01DX010 (ip), vehicle: water)?
A: 140 % of control

Q: And the survivor count (dose: 800.0 mg/kg/injection, schedule: Q01DX010 (ip), vehicle: water)?
A: 3 of 6 and 6 of 6

Q: With `CN(C)C(c1ccccc1)C(CBr)C(=O)c1ccc(Br)cc1` (stereo not given) as the compound, how does the T/C (dose: 12.5 mg/kg/injection, schedule: Q01DX009 (ip), vehicle: saline) read?
A: 125 % of control

Q: And the T/C [2]?
A: 125 % of control

Q: What about the survivor count (dose: 55.0 mg/kg/injection, schedule: Q01DX009 (ip), vehicle: saline) of the same compound?
A: 0 of 6

Q: What about the survivor count (dose: 85.0 mg/kg/injection, schedule: Q01DX009 (ip), vehicle: saline) of the same compound?
A: 1 of 6

Q: What about the survivor count [3] of the same compound?
A: 0 of 6

Q: What about the survivor count (dose: 125.0 mg/kg/injection, schedule: Q01DX009 (ip), vehicle: saline) of the same compound?
A: 0 of 6

Q: Which T/C [4] does the source give for `Cc1c(C)c([N+](=O)[O-])c(Br)c(C)c1[N+](=O)[O-]` here?
A: 140 % of control

Q: Which results are given for `CC1(C)N=C(N)N=C(N)N1c1ccc(CCCCc2ccc(S(=O)(=O)F)cc2)cc1`?
A: T/C (dose: 8.0 mg/kg/injection, schedule: Q01DX009 (ip), vehicle: saline): 145 % of control; T/C (dose: 18.0 mg/kg/injection, schedule: Q01DX009 (ip), vehicle: saline): 145 % of control

Q: `CC(=O)NC1CCCN(O)C(=O)/C=C(/C)CCOC(=O)C(NC(C)=O)CCCN(O)C(=O)/C=C(/C)CCOC(=O)C(NC(C)=O)CCCN(O)C(=O)/C=C(/C)CCOC1=O.[Fe]` (stereo not given) was tested. Which survivor count [5] did it give?
A: 6 of 6

Q: How did the survivor count (dose: 100.0 mg/kg/injection, schedule: Q04DX003 (ip), vehicle: saline with Tween-80) turn out when `OC1CC[N-]CC1.OC1CC[N-]CC1.[Cl][Pt+2]([Cl])([Cl])[Cl]` was run?
A: 4 of 6

Q: What about the survivor count [4] of the same compound?
A: 1 of 6

Q: What does the source list for `COc1cc(C)c(C2NC(=O)c3ccccc3N2)cc1C` (stereo not given)?
A: T/C [5]: 140 % of control; T/C (dose: 200.0 mg/kg/injection, schedule: Q01DX009 (ip), vehicle: Klucel (hydroxypropylcellulose) (HPC)): 129 % of control; T/C (dose: 400.0 mg/kg/injection, schedule: Q01DX009 (ip), vehicle: Klucel (hydroxypropylcellulose) (HPC)): 154, 170, 185 % of control (2×)

Q: How did the survivor count [6] turn out when `CCOC(=O)CCCN(c1sc(C)c(-c2ccccc2)c1C(=O)OCC)S(=O)(=O)c1ccc(C)cc1` was run?
A: 4 of 6

Q: What does the source list for `CCCCCCCCCCCc1n(Cc2ccccc2)cc[n+]1C`?
A: survivor count (dose: 6.0 mg/kg/injection, schedule: Q04DX003 (ip), vehicle: saline): 6 of 6; survivor count (dose: 12.5 mg/kg/injection, schedule: Q04DX003 (ip), vehicle: saline): 3 of 6; survivor count (dose: 25.0 mg/kg/injection, schedule: Q04DX003 (ip), vehicle: saline): 0 of 6; survivor count (dose: 50.0 mg/kg/injection, schedule: Q04DX003 (ip), vehicle: saline): 0 of 6; survivor count (dose: 100.0 mg/kg/injection, schedule: Q04DX003 (ip), vehicle: saline): 0 of 6; survivor count (dose: 200.0 mg/kg/injection, schedule: Q04DX003 (ip), vehicle: saline): 0 of 6; survivor count [7]: 0 of 6

Q: With `O=C1CCC(=O)N1CCC(=O)N(C(=O)NC1CCCCC1)C1CCCCC1` as the compound, how does the T/C [8] read?
A: 134 % of control

Q: Which results are given for `O=C(/C=C(\Cl)C(=O)NO)NO`?
A: T/C [2]: 131 % of control; T/C (dose: 50.0 mg/kg/injection, schedule: Q01DX009 (ip), vehicle: saline): 127 % of control; T/C (dose: 66.0 mg/kg/injection, schedule: Q01DX009 (ip), vehicle: saline): 127 and 131 % of control [5 of 6 alive]; T/C (dose: 100.0 mg/kg/injection, schedule: Q01DX009 (ip), vehicle: saline): 127 % of control (2×); T/C (dose: 150.0 mg/kg/injection, schedule: Q01DX009 (ip), vehicle: saline): 127 and 145 % of control [4 of 6 alive]

Q: With `CC(Oc1ccccc1-c1ccccc1)C(=O)N(C)C` (stereo not given) as the compound, how does the T/C (dose: 25.0 mg/kg/injection, schedule: Q01DX009 (ip), vehicle: saline with Tween-80) read?
A: 126 % of control

Q: With `C/C(CCCCl)=N/N=C(N)N` as the compound, how does the survivor count (dose: 28.12 mg/kg/injection, schedule: Q01DX001 (ip), vehicle: saline) read?
A: 6 of 6

Q: And the T/C (dose: 75.0 mg/kg/injection, schedule: Q04DX003 (ip), vehicle: saline)?
A: 136 % of control

Q: What about the survivor count (dose: 110.0 mg/kg/injection, schedule: Q01DX009 (ip), vehicle: saline) of the same compound?
A: 2 of 6

Q: What about the survivor count [3] of the same compound?
A: 2 of 6

Q: And the survivor count (dose: 170.0 mg/kg/injection, schedule: Q01DX009 (ip), vehicle: saline)?
A: 0 of 6

Q: And the survivor count (dose: 255.0 mg/kg/injection, schedule: Q01DX009 (ip), vehicle: saline)?
A: 0 of 6

Q: What does the source list for `C[CH2][Ge]([CH2]C)[CH2]C.C[CH2][Ge]([CH2]C)[CH2]C.C[CH2][Ge]([CH2]C)[O][Ge]([CH2]C)[CH2]C`?
A: T/C [8]: 132 % of control; T/C [9]: 141 % of control; survivor count [9]: 5 of 6

Q: For `CC(C)(C#N)Nc1ccccc1`, which survivor count (dose: 12.5 mg/kg/injection, schedule: Q01DX009 (ip), vehicle: saline with Tween-80) is on record?
A: 2 of 6

Q: `CCC(O)Cc1c[nH]c(=O)[nH]c1=O` (stereo not given) was tested. Which survivor count [7] did it give?
A: 0 of 6

Q: What does the source list for `O=[N+]([O-])CC(O)c1ccc2ccccc2n1` (stereo not given)?
A: survivor count [1]: 3 of 6; survivor count [7]: 0 of 6

Q: Which results are given for `COc1cccnc1/C=N/NC(N)=S`?
A: T/C (dose: 6.0 mg/kg/injection, schedule: Q01DX009 (ip), vehicle: saline with Tween-80): 144 % of control; survivor count (dose: 18.0 mg/kg/injection, schedule: Q01DX009 (ip), vehicle: saline with Tween-80): 1 of 6; survivor count (dose: 24.0 mg/kg/injection, schedule: Q01DX009 (ip), vehicle: saline with Tween-80): 1 of 6; survivor count (dose: 27.0 mg/kg/injection, schedule: Q01DX009 (ip), vehicle: saline with Tween-80): 0 of 6

Q: What does the source list for `CCCCCCCC(=O)NC1CC(O[C@H]2C[C@](O)(C(=O)CO)Cc3c(O)c4c(c(O)c32)C(=O)c2c(OC)cccc2C4=O)OC(C)C1O` (stereo not given in full)?
A: T/C (dose: 1.56 mg/kg/injection, schedule: Q01DX009 (ip), vehicle: water): 127 % of control; T/C (dose: 3.13 mg/kg/injection, schedule: Q01DX009 (ip), vehicle: water): 136 % of control; T/C (dose: 150.0 mg/kg/injection, schedule: Q04DX003 (ip), vehicle: water): 142 % of control; T/C (dose: 300.0 mg/kg/injection, schedule: Q04DX003 (ip), vehicle: water): 135 [5 of 6 alive] and 136 % of control; T/C (dose: 400.0 mg/kg/injection, schedule: Q04DX003 (ip), vehicle: water): 131 % of control

Q: What does the source list for `CC(=O)Oc1ccc[nH]c1=O`?
A: T/C [9]: 125 % of control; T/C [6]: 134 and 135 % of control; T/C (dose: 600.0 mg/kg/injection, schedule: Q01DX009 (ip), vehicle: saline with Tween-80): 148 % of control [5 of 6 alive]

Q: How did the survivor count [9] turn out when `CCCCCCCCCCOP(N)(=O)OCCCCCCCCCC` was run?
A: 6 of 6

Q: And the survivor count (dose: 400.0 mg/kg/injection, schedule: Q04DX003 (ip), vehicle: saline with Tween-80)?
A: 2 of 6

Q: `CC(=O)OCC(=O)[C@@]1(O)CC[C@H]2[C@@H]3CCC4=CC(=O)CC[C@]4(C)[C@@]3(F)[C@@H](O)C[C@@]21C` was tested. Which survivor count (dose: 200.0 mg/kg/injection, schedule: Q01DX009 (sc), vehicle: steroid suspending solution) did it give?
A: 6 of 6

Q: And the survivor count (dose: 400.0 mg/kg/injection, schedule: Q04DX003 (sc), vehicle: steroid suspending solution)?
A: 6 of 6
